No constants are given. Whether binding was seen depends on the method and setting. Binding seen in cells or lysates may run through a third protein. Some results given as binding are weak or reduced against the parent protein; the word gives no strength.
What was measured:
[1] = biological target: C-terminal FLAG-tagged RNF43 R337* (human) (UniProt Q68DV7); assay: co-IP; HEK293T cells co-transfected with C-terminal FLAG-tagged RNF43 (WT or mutant) and mFZD5-HA; lysis in 50 mM Tris pH 7.5, 150 mM NaCl, 0.5% Triton X-100, 5 mM EDTA, 1 mM DTT; immunoprecipitated with control IgG or FLAG antibody and Protein G Agarose at 4 °C; immunoblot
[2] = biological target: C-terminal FLAG-tagged WT RNF43 (human) (UniProt Q68DV7); assay: as above

Amino acid sequences for entries named in this document (tags omitted). A change or cut given only in a name is not applied to a line headed by its entry. Chains listed by the source or under a name are the forms on record and can include a tag or linker. Residues count along the entry.
UniProt Q68DV7: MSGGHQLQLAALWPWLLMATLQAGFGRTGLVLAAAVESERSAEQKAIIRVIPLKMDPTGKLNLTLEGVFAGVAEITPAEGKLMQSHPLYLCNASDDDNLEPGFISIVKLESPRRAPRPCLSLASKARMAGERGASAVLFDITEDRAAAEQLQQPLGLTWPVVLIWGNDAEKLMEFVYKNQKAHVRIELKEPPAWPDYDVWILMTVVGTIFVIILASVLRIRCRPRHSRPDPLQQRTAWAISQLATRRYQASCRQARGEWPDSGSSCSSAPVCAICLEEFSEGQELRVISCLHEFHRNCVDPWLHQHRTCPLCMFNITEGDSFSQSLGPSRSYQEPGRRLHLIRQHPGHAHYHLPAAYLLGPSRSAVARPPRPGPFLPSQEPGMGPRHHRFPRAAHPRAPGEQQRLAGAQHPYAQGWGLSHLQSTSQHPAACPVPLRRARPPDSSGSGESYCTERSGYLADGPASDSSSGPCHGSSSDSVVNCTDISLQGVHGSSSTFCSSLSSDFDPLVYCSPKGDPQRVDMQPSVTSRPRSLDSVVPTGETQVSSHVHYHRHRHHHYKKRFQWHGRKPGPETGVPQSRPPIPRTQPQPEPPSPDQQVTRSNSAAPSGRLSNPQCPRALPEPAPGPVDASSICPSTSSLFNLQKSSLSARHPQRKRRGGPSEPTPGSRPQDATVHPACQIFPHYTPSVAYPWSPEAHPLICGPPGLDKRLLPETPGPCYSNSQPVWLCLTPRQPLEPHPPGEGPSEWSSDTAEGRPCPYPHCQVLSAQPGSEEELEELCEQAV
C-terminal FLAG-tagged WT RNF43: residues 24-783 of Q68DV7
C-terminal FLAG-tagged RNF43 R337*: residues 24-336 of Q68DV7
UniProt Q9EQD0, residues 27-585: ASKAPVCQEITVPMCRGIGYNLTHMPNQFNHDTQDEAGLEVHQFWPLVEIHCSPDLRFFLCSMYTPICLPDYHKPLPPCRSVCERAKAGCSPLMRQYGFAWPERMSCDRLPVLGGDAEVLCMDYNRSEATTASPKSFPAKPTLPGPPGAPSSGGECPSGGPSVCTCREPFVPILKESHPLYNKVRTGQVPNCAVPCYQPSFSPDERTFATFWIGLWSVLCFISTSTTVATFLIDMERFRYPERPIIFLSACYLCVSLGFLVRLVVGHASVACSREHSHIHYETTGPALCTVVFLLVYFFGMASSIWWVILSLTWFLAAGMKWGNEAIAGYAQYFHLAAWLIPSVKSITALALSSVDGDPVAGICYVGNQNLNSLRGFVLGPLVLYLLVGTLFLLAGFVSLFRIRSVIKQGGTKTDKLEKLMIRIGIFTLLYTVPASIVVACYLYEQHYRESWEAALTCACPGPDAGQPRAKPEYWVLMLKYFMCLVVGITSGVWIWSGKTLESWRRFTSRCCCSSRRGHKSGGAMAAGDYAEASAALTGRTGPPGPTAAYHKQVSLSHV

binding [1]: binds
binding [2]: binds
Substance: mFZD5-HA (from UniProt Q9EQD0 27-585) (receptor)

Reference: publication PMC9054848
